Record: PubChem BioAssay AID493246 (Drosophila RNAi Screening Center, 2011)
Aim: 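Genome-wide search for dsRNAs that reduce cell number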 (primary screen). System: Drosophila Kc and S2R+ cells. Reagents: long dsRNA against Drosophila genes. Detection: 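Cell number per well after knock-down, printed as raw plate values; calls were based on per-plate z-scores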. Direction: Kc cell number and S2R+ cell number: higher = more cells remaining. Call rule: 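Active when the per-plate z-score of cell number is 3 or more in the direction of fewer cells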.
The deposit covers about 21,000 reagents; below is an unselected part of those that have a named target and a result. In the full data, 429 (2%) got an active call. 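Values are raw and not normalised between plates; calls rest on per-plate z-scores that were not deposited.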 No sequences are given here. The record does not give: the amount of reagent, the time to read-out.

Gene | amplicon | Kc cell number, rep 1 | Kc cell number, rep 2 | S2R+ cell number, rep 1 | S2R+ cell number, rep 2 | outcome
CG13321 | DRSC06358 | 1.43e6 | 1.49e6 | 1.21e6 | 1.29e6 | inactive
hh | DRSC16965 | 1.74e6 | 1.73e6 | 1.00e6 | 1.14e6 | inactive
Tsp42Eh | DRSC06190 | 1.55e6 | 1.58e6 | 1.25e6 | 1.28e6 | inactive
Ugt302E1 | DRSC15635 | 1.53e6 | 1.45e6 | 1.22e6 | 1.33e6 | inactive
ng1 | DRSC18802 | 1.50e6 | 1.49e6 | 1.00e6 | 1.22e6 | inactive
CG10904 | DRSC04084 | 1.64e6 | 1.69e6 | 1.44e6 | 1.57e6 | inactive
CG11695 | DRSC19416 | 1.58e6 | 1.53e6 | 1.02e6 | 1.10e6 | inactive
CG13474 | DRSC10018 | 1.40e6 | 1.67e6 | 1.16e6 | 1.39e6 | inactive
tn | DRSC05768 | 5.88e5 | – | 8.10e5 | – | inactive
tn | DRSC06532 | 1.13e6 | 1.19e6 | 1.12e6 | 1.03e6 | inactive
pyr | DRSC06319 | 1.29e6 | 1.46e6 | 9.80e5 | 1.09e6 | inactive
CG13722 | DRSC08331 | 1.61e6 | 1.52e6 | 1.18e6 | 1.23e6 | inactive
cpo | DRSC13265 | 1.66e6 | 1.85e6 | 1.08e6 | 1.19e6 | inactive
glob3 | DRSC12261 | 1.58e6 | 1.93e6 | 1.28e6 | 1.40e6 | inactive
TyrRS | DRSC10430 | 1.61e6 | 1.71e6 | 1.55e6 | 1.58e6 | inactive
CG5958 | DRSC02915 | 1.55e6 | 1.44e6 | 1.08e6 | 1.22e6 | inactive
Amy-p | DRSC06786 | 1.50e6 | 1.57e6 | 1.12e6 | 1.19e6 | inactive
CG10907 | DRSC09804 | 1.49e6 | 1.43e6 | 1.32e6 | 1.52e6 | inactive
jar | DRSC16974 | 1.44e6 | 1.49e6 | 1.02e6 | 1.14e6 | inactive
Snx27 | DRSC17786 | 1.57e6 | 1.51e6 | 1.02e6 | 1.16e6 | inactive
Snx27 | DRSC18282 | 1.45e6 | 1.44e6 | 9.75e5 | 1.07e6 | inactive
Snx27 | DRSC18284 | 1.53e6 | 1.50e6 | 1.03e6 | 1.14e6 | inactive
CG2493 | DRSC02707 | 1.15e6 | 1.41e6 | 1.14e6 | 1.20e6 | inactive
Lime | DRSC06752 | 1.99e6 | 1.95e6 | 1.44e6 | 1.78e6 | inactive
CG9686 | DRSC18439 | 1.55e6 | 1.55e6 | 1.03e6 | 1.16e6 | inactive
CG42758 | DRSC10021 | 1.34e6 | 1.36e6 | 1.21e6 | 1.28e6 | inactive
Sgs4 | DRSC18715 | 1.56e6 | 1.56e6 | 1.07e6 | 1.28e6 | inactive
Polr2J | DRSC02995 | 1.51e6 | 1.62e6 | 1.16e6 | 1.33e6 | inactive
CG12782 | DRSC04127 | 1.63e6 | 1.62e6 | 1.33e6 | 1.44e6 | inactive
Lar | DRSC01707 | 1.51e6 | 1.53e6 | 9.47e5 | 1.16e6 | inactive
Lar | DRSC03361 | 1.38e6 | 1.42e6 | 1.34e6 | 1.41e6 | inactive
CG15330 | DRSC18014 | 1.52e6 | 1.50e6 | 1.03e6 | 1.14e6 | inactive
CG13606 | DRSC14609 | 1.41e6 | 1.44e6 | 9.94e5 | 1.06e6 | inactive
CG7368 | DRSC10826 | 1.50e6 | 1.42e6 | 9.53e5 | 1.09e6 | inactive
CG13481 | DRSC10023 | 1.36e6 | 1.44e6 | 1.27e6 | 1.39e6 | inactive
Lgr3 | DRSC15704 | 1.63e6 | 1.60e6 | 1.01e6 | 1.13e6 | inactive
Lgr3 | DRSC15706 | 1.62e6 | 1.75e6 | 9.86e5 | 1.12e6 | inactive
CG13361 | DRSC17896 | 1.54e6 | 1.50e6 | 1.04e6 | 1.13e6 | inactive
CG10019 | DRSC00279 | 1.53e6 | 1.46e6 | 1.03e6 | 1.19e6 | inactive
tai | DRSC02207 | 1.06e6 | 1.28e6 | 6.49e5 | 7.72e5 | active
tai | DRSC02673 | 1.45e6 | 1.50e6 | 1.15e6 | 1.27e6 | inactive
